Binding data for two molecules are collected here from article doi:10.1101/2024.03.21.586141.

Assay in all cases: split reporter
For assay [1], the target named is human α1,4-galactosyltransferase (A4galt), high-frequency enzyme (p.Q211) (human) (UniProt Q9NPC4).
Assay [2] has the same target. This is another data set of the same source.
Assay [3] has as its target human α1,4-galactosyltransferase (A4galt), mutein with p.Q211E substitution (human) (UniProt Q9NPC4).
Assay [4] shares this target. This is another data set of the same source.

Like-named read-outs stand apart in the source and are kept apart here. Results are given in words; binding and its absence hold for the method and conditions named. Binding seen in cells or lysates may run through a third protein. Some binding calls cover weakened binding; strength is not graded here.

B1: human α1,4-galactosyltransferase (A4galt), high-frequency enzyme (p.Q211) (enzyme, UniProt Q9NPC4 1-353)
chain: MSKPPDLLLRLLRGAPRQRVCTLFIIGFKFTFFVSIMIYWHVVGEPKEKGQLYNLPAEIPCPTLTPPTPPSHGPTPGNIFFLETSDRTNPNFLFMCSVESAARTHPESHVLVLMKGLPGGNASLPRHLGISLLSCFPNVQMLPLDLRELFRDTPLADWYAAVQGRWEPYLLPVLSDASRIALMWKFGGIYLDTDFIVLKNLRNLTNVLGTQSRYVLNGAFLAFERRHEFMALCMRDFVDHYNGWIWGHQGPQLLTRVFKKWCSIRSLAESRACRGVTTLPPEAFYPIPWQDWKKYFEDINPEELPRLLSATYAVHVWNKKSQGTRFEATSRALLAQLHARYCPTTHEAMKMYL
B1: the binding result in assay [1] and in assay [2] was “binds” in each case.

B2: human α1,4-galactosyltransferase (A4galt), mutein with p.Q211E substitution (enzyme, UniProt Q9NPC4 1-353)
chain: MSKPPDLLLRLLRGAPRQRVCTLFIIGFKFTFFVSIMIYWHVVGEPKEKGQLYNLPAEIPCPTLTPPTPPSHGPTPGNIFFLETSDRTNPNFLFMCSVESAARTHPESHVLVLMKGLPGGNASLPRHLGISLLSCFPNVQMLPLDLRELFRDTPLADWYAAVQGRWEPYLLPVLSDASRIALMWKFGGIYLDTDFIVLKNLRNLTNVLGTESRYVLNGAFLAFERRHEFMALCMRDFVDHYNGWIWGHQGPQLLTRVFKKWCSIRSLAESRACRGVTTLPPEAFYPIPWQDWKKYFEDINPEELPRLLSATYAVHVWNKKSQGTRFEATSRALLAQLHARYCPTTHEAMKMYL
With B2, the binding result in assay [3] and in assay [4] was “binds” throughout.
